Measured values published in the supplement of paper PMC10849652.
Some of the results follow.

Chains of the proteins cited; added tags and fusions are not shown. Lines headed by an entry give the natural chain unless they say otherwise; changes in a name come on top.
UniProt Q9P021, whole entry, looked up: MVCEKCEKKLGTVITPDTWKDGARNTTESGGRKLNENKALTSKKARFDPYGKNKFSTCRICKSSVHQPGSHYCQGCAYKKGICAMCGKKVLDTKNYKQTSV
UniProt Q2TBE0: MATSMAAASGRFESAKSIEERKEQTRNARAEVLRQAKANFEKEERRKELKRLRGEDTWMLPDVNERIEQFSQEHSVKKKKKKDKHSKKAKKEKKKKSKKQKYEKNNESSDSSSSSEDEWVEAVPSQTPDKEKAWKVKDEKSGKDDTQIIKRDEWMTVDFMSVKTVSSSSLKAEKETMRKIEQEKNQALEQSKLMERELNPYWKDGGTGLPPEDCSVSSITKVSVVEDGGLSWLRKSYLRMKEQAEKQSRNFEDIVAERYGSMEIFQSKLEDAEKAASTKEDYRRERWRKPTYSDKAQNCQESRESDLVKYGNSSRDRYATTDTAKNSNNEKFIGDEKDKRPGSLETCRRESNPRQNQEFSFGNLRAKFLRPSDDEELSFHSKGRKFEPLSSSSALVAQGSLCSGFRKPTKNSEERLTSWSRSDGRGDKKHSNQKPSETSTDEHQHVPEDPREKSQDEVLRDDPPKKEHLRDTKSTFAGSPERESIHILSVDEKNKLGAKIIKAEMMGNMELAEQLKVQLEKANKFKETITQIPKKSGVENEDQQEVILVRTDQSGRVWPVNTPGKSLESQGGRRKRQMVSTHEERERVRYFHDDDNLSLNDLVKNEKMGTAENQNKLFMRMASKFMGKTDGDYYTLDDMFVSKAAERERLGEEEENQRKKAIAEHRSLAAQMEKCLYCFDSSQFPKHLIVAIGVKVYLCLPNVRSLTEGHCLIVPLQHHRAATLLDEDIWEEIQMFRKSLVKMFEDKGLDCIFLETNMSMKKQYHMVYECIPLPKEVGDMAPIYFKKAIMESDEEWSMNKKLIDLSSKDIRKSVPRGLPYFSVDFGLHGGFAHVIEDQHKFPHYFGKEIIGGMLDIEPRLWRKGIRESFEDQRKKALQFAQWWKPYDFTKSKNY
UniProt O60888: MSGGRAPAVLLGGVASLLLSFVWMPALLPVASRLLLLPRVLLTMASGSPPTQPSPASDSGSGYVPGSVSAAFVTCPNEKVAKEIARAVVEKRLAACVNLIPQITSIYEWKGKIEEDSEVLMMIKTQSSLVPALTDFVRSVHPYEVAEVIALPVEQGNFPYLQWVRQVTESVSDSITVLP
UniProt Q08257: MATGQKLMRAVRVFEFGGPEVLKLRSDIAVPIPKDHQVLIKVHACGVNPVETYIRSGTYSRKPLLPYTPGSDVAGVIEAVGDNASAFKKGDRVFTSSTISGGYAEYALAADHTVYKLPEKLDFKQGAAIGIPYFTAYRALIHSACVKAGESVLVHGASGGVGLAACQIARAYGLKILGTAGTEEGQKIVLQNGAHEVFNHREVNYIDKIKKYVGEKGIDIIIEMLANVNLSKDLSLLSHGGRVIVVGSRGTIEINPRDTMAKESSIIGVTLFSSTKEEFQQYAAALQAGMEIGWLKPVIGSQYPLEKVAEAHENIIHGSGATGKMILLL
UniProt Q7L1T6: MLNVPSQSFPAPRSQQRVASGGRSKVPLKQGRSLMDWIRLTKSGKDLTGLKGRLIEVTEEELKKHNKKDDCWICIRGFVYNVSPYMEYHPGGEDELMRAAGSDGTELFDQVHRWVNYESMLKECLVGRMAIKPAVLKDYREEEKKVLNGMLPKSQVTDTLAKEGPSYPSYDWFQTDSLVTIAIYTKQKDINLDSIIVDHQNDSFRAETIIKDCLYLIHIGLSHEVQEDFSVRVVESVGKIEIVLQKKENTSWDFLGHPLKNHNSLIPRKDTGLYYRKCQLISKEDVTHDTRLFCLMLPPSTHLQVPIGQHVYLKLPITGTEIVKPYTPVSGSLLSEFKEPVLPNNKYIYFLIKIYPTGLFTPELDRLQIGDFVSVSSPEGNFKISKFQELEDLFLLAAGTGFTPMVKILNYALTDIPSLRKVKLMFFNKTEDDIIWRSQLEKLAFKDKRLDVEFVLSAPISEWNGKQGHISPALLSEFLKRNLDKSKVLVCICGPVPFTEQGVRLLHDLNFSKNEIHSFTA
UniProt Q53ET0: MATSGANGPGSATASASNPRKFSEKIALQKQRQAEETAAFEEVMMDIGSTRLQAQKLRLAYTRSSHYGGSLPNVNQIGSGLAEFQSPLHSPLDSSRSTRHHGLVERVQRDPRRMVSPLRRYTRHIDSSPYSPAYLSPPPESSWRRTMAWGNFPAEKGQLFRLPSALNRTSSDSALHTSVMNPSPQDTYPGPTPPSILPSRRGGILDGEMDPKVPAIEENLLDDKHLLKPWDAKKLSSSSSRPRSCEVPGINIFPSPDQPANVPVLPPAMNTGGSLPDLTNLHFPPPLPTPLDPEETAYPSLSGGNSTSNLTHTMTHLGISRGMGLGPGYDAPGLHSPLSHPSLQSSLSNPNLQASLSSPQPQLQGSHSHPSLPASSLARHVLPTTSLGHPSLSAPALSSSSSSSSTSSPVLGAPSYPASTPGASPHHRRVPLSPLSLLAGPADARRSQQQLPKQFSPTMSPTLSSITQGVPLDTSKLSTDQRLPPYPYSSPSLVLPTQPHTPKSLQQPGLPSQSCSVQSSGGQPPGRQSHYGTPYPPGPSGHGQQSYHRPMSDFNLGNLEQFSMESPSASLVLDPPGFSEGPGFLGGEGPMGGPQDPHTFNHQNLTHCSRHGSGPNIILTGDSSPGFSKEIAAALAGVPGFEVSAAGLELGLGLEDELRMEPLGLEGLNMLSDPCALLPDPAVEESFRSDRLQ
UniProt Q9P0U4, whole entry, looked up: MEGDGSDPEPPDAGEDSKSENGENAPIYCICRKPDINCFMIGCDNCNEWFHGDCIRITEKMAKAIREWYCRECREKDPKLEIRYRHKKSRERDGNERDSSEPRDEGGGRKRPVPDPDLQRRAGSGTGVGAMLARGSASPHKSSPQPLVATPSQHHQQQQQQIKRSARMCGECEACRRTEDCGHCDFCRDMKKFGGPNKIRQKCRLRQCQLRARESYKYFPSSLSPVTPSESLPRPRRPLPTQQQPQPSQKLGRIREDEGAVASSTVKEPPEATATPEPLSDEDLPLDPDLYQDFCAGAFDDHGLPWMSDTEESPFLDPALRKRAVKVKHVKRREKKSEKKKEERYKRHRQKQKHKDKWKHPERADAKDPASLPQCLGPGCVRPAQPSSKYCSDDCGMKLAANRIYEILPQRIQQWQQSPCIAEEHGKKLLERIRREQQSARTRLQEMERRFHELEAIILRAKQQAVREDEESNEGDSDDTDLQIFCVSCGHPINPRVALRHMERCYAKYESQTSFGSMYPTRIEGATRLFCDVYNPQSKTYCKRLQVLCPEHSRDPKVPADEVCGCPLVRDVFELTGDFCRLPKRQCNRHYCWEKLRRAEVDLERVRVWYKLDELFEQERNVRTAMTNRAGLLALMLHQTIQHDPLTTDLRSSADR
UniProt P99999: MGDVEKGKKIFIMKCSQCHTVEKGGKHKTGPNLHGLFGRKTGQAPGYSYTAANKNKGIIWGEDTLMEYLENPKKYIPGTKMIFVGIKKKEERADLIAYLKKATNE
UniProt P68400, whole entry, looked up: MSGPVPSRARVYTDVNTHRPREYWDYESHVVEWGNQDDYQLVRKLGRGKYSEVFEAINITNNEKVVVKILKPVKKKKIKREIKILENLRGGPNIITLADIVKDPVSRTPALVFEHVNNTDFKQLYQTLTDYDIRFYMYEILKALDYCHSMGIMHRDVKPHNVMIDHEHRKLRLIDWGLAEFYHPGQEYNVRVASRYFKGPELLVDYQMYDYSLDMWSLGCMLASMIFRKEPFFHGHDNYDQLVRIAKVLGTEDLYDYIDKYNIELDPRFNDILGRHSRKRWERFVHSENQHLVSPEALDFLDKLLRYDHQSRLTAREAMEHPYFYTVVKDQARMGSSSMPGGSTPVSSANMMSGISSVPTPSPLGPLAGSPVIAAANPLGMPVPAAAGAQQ
UniProt Q12996: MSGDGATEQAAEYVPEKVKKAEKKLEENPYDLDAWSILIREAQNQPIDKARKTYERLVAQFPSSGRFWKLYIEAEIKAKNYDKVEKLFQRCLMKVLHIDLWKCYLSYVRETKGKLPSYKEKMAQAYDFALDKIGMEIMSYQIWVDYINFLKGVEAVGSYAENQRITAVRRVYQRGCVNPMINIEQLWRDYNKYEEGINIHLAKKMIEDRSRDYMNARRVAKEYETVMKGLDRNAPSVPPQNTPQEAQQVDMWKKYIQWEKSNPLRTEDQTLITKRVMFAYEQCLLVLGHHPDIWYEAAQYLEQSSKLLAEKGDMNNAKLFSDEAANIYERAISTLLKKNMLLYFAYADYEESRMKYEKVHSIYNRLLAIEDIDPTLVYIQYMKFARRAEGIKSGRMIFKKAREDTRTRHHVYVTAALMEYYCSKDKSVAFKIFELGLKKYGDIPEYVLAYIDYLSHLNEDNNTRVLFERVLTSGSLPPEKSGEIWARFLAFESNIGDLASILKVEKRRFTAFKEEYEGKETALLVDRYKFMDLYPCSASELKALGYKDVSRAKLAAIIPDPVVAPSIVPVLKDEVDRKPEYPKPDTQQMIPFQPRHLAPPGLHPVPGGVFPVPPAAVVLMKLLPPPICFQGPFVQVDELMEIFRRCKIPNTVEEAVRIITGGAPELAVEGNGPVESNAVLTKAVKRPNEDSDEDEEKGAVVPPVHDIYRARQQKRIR
UniProt P02511: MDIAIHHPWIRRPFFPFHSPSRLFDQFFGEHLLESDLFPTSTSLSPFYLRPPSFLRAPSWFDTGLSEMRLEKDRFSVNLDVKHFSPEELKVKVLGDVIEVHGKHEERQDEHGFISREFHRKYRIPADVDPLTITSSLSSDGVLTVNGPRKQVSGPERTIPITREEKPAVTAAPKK
UniProt Q8WUE5: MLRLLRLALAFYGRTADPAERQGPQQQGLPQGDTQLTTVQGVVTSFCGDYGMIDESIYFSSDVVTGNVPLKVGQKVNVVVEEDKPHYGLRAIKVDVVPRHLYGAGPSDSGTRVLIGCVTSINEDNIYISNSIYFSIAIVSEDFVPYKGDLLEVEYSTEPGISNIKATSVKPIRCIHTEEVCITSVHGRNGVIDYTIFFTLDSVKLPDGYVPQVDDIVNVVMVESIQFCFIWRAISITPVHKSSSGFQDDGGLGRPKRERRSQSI
UniProt A4D126: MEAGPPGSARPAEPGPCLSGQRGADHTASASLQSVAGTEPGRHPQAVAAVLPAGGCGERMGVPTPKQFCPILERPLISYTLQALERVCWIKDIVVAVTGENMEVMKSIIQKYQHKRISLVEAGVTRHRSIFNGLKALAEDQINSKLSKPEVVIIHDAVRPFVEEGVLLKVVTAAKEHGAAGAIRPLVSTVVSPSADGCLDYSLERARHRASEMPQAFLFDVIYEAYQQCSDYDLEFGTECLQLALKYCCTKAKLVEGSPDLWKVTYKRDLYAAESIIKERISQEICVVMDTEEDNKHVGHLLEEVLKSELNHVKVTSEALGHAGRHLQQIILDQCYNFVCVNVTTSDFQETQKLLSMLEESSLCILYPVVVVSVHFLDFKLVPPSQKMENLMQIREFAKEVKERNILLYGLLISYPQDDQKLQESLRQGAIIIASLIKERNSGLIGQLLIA
UniProt Q13616, whole entry, looked up: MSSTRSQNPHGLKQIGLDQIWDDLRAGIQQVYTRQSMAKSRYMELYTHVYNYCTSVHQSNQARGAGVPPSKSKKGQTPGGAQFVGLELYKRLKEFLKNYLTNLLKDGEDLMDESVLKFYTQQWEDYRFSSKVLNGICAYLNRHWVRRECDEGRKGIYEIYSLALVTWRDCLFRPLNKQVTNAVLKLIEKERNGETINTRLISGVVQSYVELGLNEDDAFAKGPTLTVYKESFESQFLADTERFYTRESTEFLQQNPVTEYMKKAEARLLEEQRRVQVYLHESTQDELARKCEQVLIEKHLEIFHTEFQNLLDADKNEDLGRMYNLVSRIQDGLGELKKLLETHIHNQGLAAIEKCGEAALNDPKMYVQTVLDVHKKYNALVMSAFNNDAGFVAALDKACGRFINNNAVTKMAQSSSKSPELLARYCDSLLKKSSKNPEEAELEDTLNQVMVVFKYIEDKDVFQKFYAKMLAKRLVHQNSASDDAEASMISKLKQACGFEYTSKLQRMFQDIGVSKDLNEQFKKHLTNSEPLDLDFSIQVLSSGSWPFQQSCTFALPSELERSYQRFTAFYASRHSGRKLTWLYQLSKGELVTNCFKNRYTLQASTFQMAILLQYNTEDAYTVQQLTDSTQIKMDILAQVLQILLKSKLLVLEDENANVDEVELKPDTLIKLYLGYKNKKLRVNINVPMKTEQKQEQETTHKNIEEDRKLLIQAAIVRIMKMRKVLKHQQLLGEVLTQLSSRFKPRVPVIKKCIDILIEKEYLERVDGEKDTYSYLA
UniProt Q8TB03: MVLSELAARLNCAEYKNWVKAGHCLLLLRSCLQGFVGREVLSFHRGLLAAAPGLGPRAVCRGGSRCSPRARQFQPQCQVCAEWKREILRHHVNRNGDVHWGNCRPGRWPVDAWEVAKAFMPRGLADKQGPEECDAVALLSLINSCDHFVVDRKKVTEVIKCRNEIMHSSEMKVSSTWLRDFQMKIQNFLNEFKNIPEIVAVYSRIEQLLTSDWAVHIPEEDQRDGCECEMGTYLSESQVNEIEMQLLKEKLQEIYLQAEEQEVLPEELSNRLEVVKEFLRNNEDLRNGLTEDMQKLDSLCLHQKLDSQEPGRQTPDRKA

What was measured:
Experiment in all cases: log2 fold change, soluble protein after heating vs DMSO (PISA); higher = thermal stabilisation; K562 lysate, 10 uM; active = over 0.2 and 3.5 SD of the protein, either way, in both replicates (recomputed)
[1] = compound: C1=CC=C(C=C1)[C@H](COC2=CC3=C(C=C2)NC(=O)N3)NC(=O)C4=CC=CN(C4=O)CC5=CC(=C(C=C5)F)F
Outline: (§1)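 The values are log-two fold changes in thermal stability compared with solvent controls and come from duplicates. They were obtained by TMTpro 16plex LC-MS/MS, with channel sums equalised, on the supernatant after 21,000xg for 90 min. That supernatant came from crude K562 extract at 1 mg/mL protein treated with 10 μM compound for 30 min, heated for 3 min across 48°C-58°C, pooled and brought to 0.5% NP-40 at 4°C.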

[2] = compound: CC1=C(SC2=C1C(=N[C@H](C3=NN=C(N32)C)CC(=O)N)C4=CC=C(C=C4)Cl)C
Outline: as §1

[3] = compound: CC1=C2C(=CC=C1)N=C(N(C2=O)C3=CC=CC=C3C)CN4C=NC5=C(N=CN=C54)N
Outline: as §1

[4] = compound: Cc1sc2c(c1C)C(c1ccc(Cl)cc1)=N[C@@H](CC(=O)OC(C)(C)C)c1nnc(C)n1-2
Outline: as §1

[5] = compound: c1ccc([C@@H]2C[C@H]2NC2CCNCC2)cc1
Outline: as §1

Measured: log2 fold change

CRIPT (UniProt Q9P021)
inactive: [1] 0.015 | [2] 0.15 | [3] 0.022 | [4] -0.005 | [5] 0.005

CWF19L2 (UniProt Q2TBE0)
inactive: [1] -0.025 | [2] 0.022 | [3] 0.02 | [4] -0.083 | [5] 0.027

CXorf56 (UniProt Q9H5V9)
inactive: [1] 0.016 | [2] 0.048 | [3] -0.012 | [4] -0.022 | [5] 0.01

CTBP1 (UniProt Q13363)
inactive: [1] -0.015 | [2] 0.028 | [3] 0.023 | [4] 0.015 | [5] -0.025

CRADD (UniProt P78560)
inactive: [1] 0.066 | [2] -0.016 | [3] 0.116 | [4] -0.006 | [5] 0.07

CTTN (UniProt Q14247)
inactive: [1] 0.097 | [2] -0.044 | [3] -0.013 | [4] 0.001 | [5] 0.071

CUTA isoform 2 (UniProt O60888)
inactive: [1] 0.086 | [2] 0.024 | [3] -0.016 | [4] -0.017 | [5] -0.091

CWC25 (UniProt Q9NXE8)
inactive: [1] -0.177 | [2] -0.151 | [3] 0.111 | [5] -0.017

CROCC (UniProt Q5TZA2)
inactive: [1] -0.085 | [2] 0.09 | [3] 0.085 | [4] -0.035 | [5] 0.004

CRNKL1 (UniProt Q9BZJ0)
inactive: [1] -0.073 | [2] 0.011 | [3] -0.012 | [4] -0.326 | [5] 0.037

CRYZ (UniProt Q08257)
inactive: [1] 0.008 | [2] -0.021 | [3] 0.009 | [4] -0.024 | [5] -0.084

CYB5R4 (UniProt Q7L1T6)
inactive: [1] -0.056 | [2] -0.001 | [3] 0.046 | [4] -0.086 | [5] -0.01

CRTC2 (UniProt Q53ET0)
inactive: [1] -0.012 | [2] -0.033 | [3] -0.091 | [4] 0.014 | [5] 0.015

CYB5B (UniProt O43169)
inactive: [1] -0.109 | [2] -0.162 | [3] 0.019 | [4] -0.031 | [5] -0.054

CSTF1 (UniProt Q05048)
inactive: [1] 0.019 | [2] 0.058 | [3] -0.018 | [4] 0.013 | [5] -0.018

CTTN isoform 2 (UniProt Q14247)
inactive: [1] 0.025 | [2] 0.005 | [3] -0.016 | [4] -0.018 | [5] 0.019

CSRP1 (UniProt P21291)
inactive: [1] 0.01 | [2] 0.013 | [3] 0.008 | [4] -0.003 | [5] -0.198

CYB5R2 (UniProt Q6BCY4)
inactive: [1] 0.001 | [2] 0.003 | [3] 0.163 | [4] -0.063 | [5] -0.063

CXXC1 isoform 2 (UniProt Q9P0U4)
inactive: [1] 0.006 | [2] 0.07 | [3] 0.032 | [4] -0.173 | [5] 0.029

CREBBP (UniProt Q92793)
inactive: [1] -0.046 | [2] -0.018 | [3] 0.011 | [4] 0.024 | [5] 0.002

CYCS (UniProt P99999)
inactive: [1] -0.013 | [2] 0.016 | [3] 0.002 | [4] 0.002 | [5] -0.01

CTU1 (UniProt Q7Z7A3)
inactive: [1] 0.053 | [2] 0.004 | [3] 0.024 | [4] 0.016 | [5] 0.007

CSNK2A1 (UniProt P68400)
inactive: [1] -0.004 | [2] 0.012 | [3] -0.119 | [4] 0.034 | [5] 0.005

CSTF3 (UniProt Q12996)
inactive: [1] -0.011 | [2] 0.015 | [3] 0 | [4] 0.03 | [5] 0.043

CRYAB (UniProt P02511)
inactive: [1] -0.092 | [2] 0.085 | [3] -0.007 | [4] -0.026 | [5] -0.035

CTPS1 (UniProt P17812)
inactive: [1] -0.02 | [2] -0.013 | [3] -0.029 | [4] -0.014 | [5] 0.023

Quoted at random: 3 records from the list
CSTF3 (UniProt Q12996)
inactive: [1] -0.011 | [2] 0.015 | [3] 0 | [4] 0.03 | [5] 0.043

CRYAB (UniProt P02511)
inactive: [1] -0.092 | [2] 0.085 | [3] -0.007 | [4] -0.026 | [5] -0.035

CTU1 (UniProt Q7Z7A3)
inactive: [1] 0.053 | [2] 0.004 | [3] 0.024 | [4] 0.016 | [5] 0.007

Continued:

CT55 (UniProt Q8WUE5)
inactive: [1] 0.019 | [2] 0.047 | [3] 0.052 | [4] -0.066 | [5] 0.011

CTSA (UniProt P10619)
inactive: [1] 0 | [2] 0.035 | [3] 0.005 | [4] 0.036 | [5] -0.022

CRCP (UniProt O75575)
inactive: [1] 0.052 | [2] 0.006 | [3] 0.052 | [5] -0.037

CRPPA (UniProt A4D126)
inactive: [1] 0.005 | [2] -0.008 | [3] 0.006 | [4] -0.025 | [5] -0.019

CUL3 (UniProt Q13618)
inactive: [1] -0.001 | [2] -0.001 | [3] 0.003 | [4] -0.01 | [5] 0.027

CUL1 (UniProt Q13616)
inactive: [1] 0.017 | [2] -0.027 | [3] -0.007 | [4] 0.016 | [5] -0.001

CRK (UniProt P46108)
inactive: [1] 0.039 | [2] 0.009 | [3] 0.018 | [4] -0.028 | [5] -0.011

CSNK1D (UniProt P48730)
inactive: [1] -0.027 | [2] 0.014 | [3] -0.127 | [4] -0.026 | [5] 0.025

CRBN (UniProt Q96SW2)
inactive: [1] 0.003 | [2] 0.015 | [3] -0.022 | [4] 0.007 | [5] -0.105

CSK (UniProt P41240)
inactive: [1] -0.039 | [2] -0.049 | [3] -0.019 | [4] -0.057 | [5] -0.037

CUX1 isoform 3 (UniProt P39880)
inactive: [1] -0.001 | [2] 0.024 | [3] 0.031 | [4] 0.025 | [5] 0.03

CXorf38 (UniProt Q8TB03)
inactive: [1] 0.021 | [2] 0.007 | [3] -0.021 | [4] -0.004 | [5] 0.031
